Results as given in paper PMC10072965.
Results are given in words; binding and its absence hold for the method and conditions named. In cells and extracts the contact can be indirect. Some results given as binding are weak or reduced against the parent protein; the word gives no strength.

Amino acid sequences for entries named in this document (tags omitted).
UniProt Q8NHY2: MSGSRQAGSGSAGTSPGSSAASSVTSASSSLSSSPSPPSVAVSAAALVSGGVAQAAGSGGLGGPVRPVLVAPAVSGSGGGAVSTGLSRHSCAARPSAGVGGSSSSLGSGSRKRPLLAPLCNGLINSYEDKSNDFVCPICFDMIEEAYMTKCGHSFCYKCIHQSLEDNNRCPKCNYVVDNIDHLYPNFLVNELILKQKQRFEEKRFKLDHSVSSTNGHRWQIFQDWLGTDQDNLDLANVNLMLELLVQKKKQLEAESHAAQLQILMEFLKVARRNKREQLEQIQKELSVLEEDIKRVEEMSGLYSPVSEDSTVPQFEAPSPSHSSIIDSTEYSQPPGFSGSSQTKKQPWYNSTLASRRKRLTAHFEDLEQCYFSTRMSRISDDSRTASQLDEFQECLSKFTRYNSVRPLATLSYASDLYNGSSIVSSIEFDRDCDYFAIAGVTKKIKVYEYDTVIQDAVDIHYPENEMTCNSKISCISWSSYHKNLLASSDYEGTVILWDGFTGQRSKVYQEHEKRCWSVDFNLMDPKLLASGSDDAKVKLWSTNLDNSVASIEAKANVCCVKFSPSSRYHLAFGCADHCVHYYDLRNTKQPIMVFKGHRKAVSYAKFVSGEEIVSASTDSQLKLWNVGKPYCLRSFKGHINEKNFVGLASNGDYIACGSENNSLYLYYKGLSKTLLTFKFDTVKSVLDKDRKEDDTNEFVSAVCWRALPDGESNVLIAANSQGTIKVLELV

Molecular target: COP1 over-expressed in HEK 293T cells (UniProt Q8NHY2)
Assay: co-IP; HEK 293T cells transfected with COP1 over-expression plasmid, 10 uM MG-132 for 6 hours, NP-40 lysis buffer; anti-COP1 antibody (IgG as control), protein A/G agarose, 4°C; detected by WB

- binding: binds
B1: CDH18 in HEK 293T lysate (protein, UniProt Q13634 54-790)
chain: GWVWNQFFVLEEHMGPDPQYVGKLHSNSDKGDGSVKYILTGEGAGTIFIIDDTTGDIHSTKSLDREQKTHYVLHAQAIDRRTNKPLEPESEFIIKVQDINDNAPKFTDGPYIVTVPEMSDMGTSVLQVTATDADDPTYGNSARVVYSILQGQPYFSVDPKTGVIRTALHNMDREAREHYSVVIQAKDMAGQVGGLSGSTTVNITLTDVNDNPPRFPQKHYQLYVPESAQVGSAVGKIKANDADTGSNADMTYSIINGDGMGIFSISTDKETREGILSLKKPLNYEKKKSYTLNIEGANTHLDFRFSHLGPFKDATMLKIIVGDVDEPPLFSMPSYLMEVYENAKIGTVVGTVLAQDPDSTNSLVRYFINYNVEDDRFFNIDANTGTIRTTKVLDREETPWYNITVTASEIDNPDLLSHVTVGIRVLDVNDNPPELAREYDIIVCENSKPGQVIHTISATDKDDFANGPRFNFFLDERLPVNPNFTLKDNEDNTASILTRRRRFSRTVQDVYYLPIMISDGGIPSLSSSSTLTIRVCACERDGRVRTCHAEAFLSSAGLSTGALIAILLCVLILLAIVVLFITLRRSKKEPLIISEEDVRENVVTYDDEGGGEEDTEAFDITALRNPSAAEELKYRRDIRPEVKLTPRHQTSSTLESIDVQEFIKQRLAEADLDPSVPPYDSLQTYAYEGQRSEAGSISSLDSATTQSDQDYHYLGDWGPEFKKLAELYGEIESERTT
